In publication PMC10163288:
Some of the results follow.

B1: il2ra_site1_3nfp_sap_20_mot_922575b2e9738a49cb663a995786872c_0001_af2_000000130_0001_1_15_H_._HHH_b1_02605_0001_0000400030_0000001_0_0001_af2pred_0001_af2pred_1 … (protein)
chain: SSSSSEAEEIVQELLERVEELLRKGNPEEAERLFEEAMKVALKRNDKEALELVKRWVREASSSSS
B2: il2ra_site1_3nfp_normal_mot_HHH_b2_06110_000000263_0001_43_57_H_._HHH_b1_04304_af2_0001_0000100002_0000001_0_af2pred_0001_af2pred (protein)
chain: SSSSSDLAREFERIAREVQRLLKEGDQERAEELIEELEEIAEKANDEAAKLFVERLKKKASSSSS
B3: il2ra_site1_3nfp_sap_23_mot_0eddeacbb14b769e73e254714f31e2f9_0001_af2_000000052_0001_37_51_H_._aceb0566c4959a1d3b0eec5718b8dc8a_0001_0002_0000200010_0000001_0_0 … (protein)
chain: SSSSSSSSERFFEDAERAAELEGDEETLEELRELRERFEKEGDSRYAQRVYKLLRELISSSSSSS
B4: il2ra_site2_3nfp_sap_14_mot_HHH_b1_03873_000000295_0001_37_55_H_._HHH_b1_02139_0001_0000600022_0000001_0_0001 (protein)
chain: SSSSSDEHHEVWELSHEAFELARKGNPEEAKEVLEEALEIAERANDRVAERAVREALEALSSSSS
B5: il2ra_site1_2b5i_normal_mot_0e5a94e4a5addaac739760efb25f0f5d_0001_000000289_0001_18_32_H_._HHH_b1_01234_0001_0000100009_0000001_0 (protein)
chain: SSSDEAQEIARYLNQAVFELVFELGLSSEQAKELVRLAWRLAVRGISEEEAEEILRELAEKLSSS
B6: il2ra_site1_3nfp_sap_17_mot_3cfacc6722bd33c9c25ec9075f684c77_0001_af2_000000257_0001_17_31_H_._HHH_b1_05697_0001_0000500010_0000001_0_0001_af2pred_0001_af2pred_ … (protein)
chain: NLVERVIRDLRRLGDPKAEELAEILEELLRRGVPPREVLEIAARVAEELGDPDMARDLERFAKKA
B7: il2ra_site1_1z92_sap_10_mot_c66c727fe7b11027095aa3ef302aaf37_0001_000000167_0001_38_52_H_._d63e40f36b59ff69b19faeb80cde508e_0001_af2_0001_0000200015_0000001_0_0 … (protein)
chain: SVEERLEEAVERNDPELVKEILREALEELGANPEEVENLLRFAHKTAGGDPELLVRLVLKFLSFD
B8: il2ra_site1_1z92_sap_15_mot_HHH_b1_03002_af2_000000136_0001_43_56_H_._0e653a373a1291f8f2a22526f8bd3403_0001_0001_0000100004_0000001_0_0001 (protein)
chain: SSSSSRSEERVEFVIRNIEMLLERGNDRSARWALELAKLLAERNGNPELQKRLEELEEELKSSSS
B9: il2ra_site1_2b5i_normal_mot_22370d59370c406a0c205a431f537cfa_0001_af2_000000141_0001_1_31_H_._HHH_b2_04268_af2_0001_0000200006_0000001_0_af2pred_dldesign_0_af2p … (protein)
chain: SSSSSKEEELEVADVIEELVEKKGLSDDDYAKLSRLAVDLLYKGVSVEEIKERLKKLAEELSSSS
B10: il2ra_site1_2b5i_normal_mot_HHH_b2_04910_000000118_0001_1_19_H_._HHH_b2_07787_af2_0001_0000500010_0000001_0_af2pred_dldesign_0_af2pred (protein)
chain: SSSSRELAERARELFLEANRLKQAGKEEEAKKLLEEALELAREAGCATLARLIELALKQIGSSSS
B11: il2ra_site1_3nfp_normal_mot_HHH_b2_05589_af2_000000178_0001_1_18_H_._HHH_b1_04813_af2_0001_0000400019_0000001_0_af2pred_0001_af2pred (protein)
chain: SSSSDDELRRLNKLEKQVEELAREGDDEEARKILEEAIELAEELGDELALKFLEFLESRLSSSSS
B12: il2ra_site1_3nfp_sap_16_mot_HHH_b2_04910_af2_000000236_0001_1_18_H_._HHH_b1_03309_0001_0000300020_0000001_0_0001_af2pred_0001_af2pred_swapped (protein)
chain: SSSSSEESKRVQELFRLAAEALKRGDEEEFERILEELREIAEKRNSPALRRMVEALEKDVSSSSS
B13: il2ra_site1_1z92_normal_mot_0152819cca26c81f8eead0111e16a660_0001_000000247_0001_36_50_H_._HHH_b2_05663_0002_0000400044_0000001_0 (protein)
chain: SSSSSSELAAELAVRIVVEAAGLSPEDEERLEELVKELLEEGVDVEEIIKILDELARRLDSSSSS
B14: il2ra_site2_2erj_sap_17_mot_HHH_b2_05866_000000027_0001_43_57_H_._HHH_b1_01196_af2_0001_0000100002_0000001_0_0001 (protein)
chain: SSSSDEDKRRAEEIFEELEELLKRNDLHEFYRLLVELTHLASKVGDPEILKLLREILELAGSSSS
B15: il2ra_site1_3nfp_sap_19_mot_HHH_b1_01683_000000180_0001_19_35_H_._HHH_b1_01165_af2_0001_0000300010_0000001_0_0001 (protein)
chain: SSSSDVHELLERALELAWEGNPEEARELVEEALELAKELGDESRERYAERALESIKRAHQSSSSS
B16: il2ra_site1_3nfp_normal_mot_HHH_b1_01159_af2_000000075_0001_1_20_H_._HHH_b2_02821_0001_0000900040_0000001_0_af2pred_0001_af2pred (protein)
chain: SSSSDEKEELERLIEEVAEAAKEGNEEELEELLREALKLAQENNDRAAERFLRAALKRVSSSSSS
B17: il2ra_site2_2erj_normal_mot_HHH_b1_04373_af2_000000118_0001_18_33_H_._HHH_b1_01717_0001_0000300026_0000001_0 (protein)
chain: SSSSSSVEERVRELLEEAERLYEEGNLEEVYRLAVEALRLASEHNNDELQQEIAEVVERLSSSSS
B18: il2ra_site1_2b5i_sap_19_mot_HHH_b1_07515_af2_000000276_0001_42_54_H_._HHH_b1_00847_af2_0001_0000700018_0000001_0_0001 (protein)
chain: SSSSDERTREAQRLFREADELDREGDPEEARRVLEQALEIAEEEGSRSLLIMIEWALRQFNSSSS

The binders below were run against il2ra, P01589 (assay: yeast display titration).

Apparent Kd, inactive:
B1 no binding seen, B2 no binding seen, B3 no binding seen, B4 no binding seen, B5 no binding seen, B6 no binding seen, B7 no binding seen, B8 no binding seen, B9 no binding seen, B10 no binding seen, B11 no binding seen, B12 no binding seen, B13 no binding seen, B14 no binding seen, B15 no binding seen, B16 no binding seen, B17 no binding seen, B18 no binding seen
